{"source": "PubChem BioAssay AID504774 – Drosophila RNAi Screening Center | 2011", "screen": "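Genes required for cells to withstand methyl methanesulphonate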 (primary screen)", "system": "Drosophila Kc167 cells", "reagents": "long dsRNA against Drosophila genes, about 0.25 µg dsRNA per well", "timing": "about 6 days: 3 days knock-down, then 3 days with or without MMS", "conditions": "methyl methanesulphonate 0.004% (w/v) for 3 days after knock-down", "read-out": "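Viability in wells given MMS, read as ATP luminescence, normalised by quantiles plate by plate and averaged across replicates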", "direction": "mean viability with MMS and viability with MMS: higher = more surviving cells after MMS", "note": "In all, the deposit lists about 23,000 reagents; below is an unselected part of those with a known target gene and a result. 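Values are quantile-normalised luminescence on an arbitrary scale; higher means more cells surviving MMS.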 Names joined by + are all predicted targets of the reagent. Not all columns of the deposit are shown."}
{"predicted target": "uno (univalents only)", "amplicon": "DRSC07244", "mean viability with MMS": 3.78e6, "viability with MMS, replicate 1": 4.13e6}
{"predicted target": "CG16964", "amplicon": "DRSC02546", "mean viability with MMS": 3.54e6, "viability with MMS, replicate 1": 4.02e6}
{"predicted target": "CG15545", "amplicon": "DRSC15083", "mean viability with MMS": 3.51e6, "viability with MMS, replicate 1": 3.94e6}
{"predicted target": "CG33642", "amplicon": "DRSC01325", "mean viability with MMS": 3.69e6, "viability with MMS, replicate 1": 4.13e6}
{"predicted target": "CG13245", "amplicon": "DRSC02243", "mean viability with MMS": 3.46e6, "viability with MMS, replicate 1": 3.75e6}
{"predicted target": "CG15706", "amplicon": "DRSC06577", "mean viability with MMS": 3.52e6, "viability with MMS, replicate 1": 3.89e6}
{"predicted target": "Vps45 (Vacuolar protein sorting 45)", "amplicon": "DRSC16398", "mean viability with MMS": 3.64e6, "viability with MMS, replicate 1": 4.11e6}
{"predicted target": "CG7484", "amplicon": "DRSC10853", "mean viability with MMS": 3.49e6, "viability with MMS, replicate 1": 4.03e6}
{"predicted target": "CG6695", "amplicon": "DRSC16098", "mean viability with MMS": 3.60e6, "viability with MMS, replicate 1": 4.03e6}
{"predicted target": "Diap1 (Death-associated inhibitor of apoptosis 1)", "amplicon": "DRSC11404", "mean viability with MMS": 2.53e6, "viability with MMS, replicate 1": 3.52e6}
{"predicted target": "CG16741", "amplicon": "DRSC06622", "mean viability with MMS": 3.32e6, "viability with MMS, replicate 1": 3.81e6}
{"predicted target": "CG7950 + Rpp14a", "amplicon": "DRSC16353", "mean viability with MMS": 3.47e6, "viability with MMS, replicate 1": 3.90e6}
{"predicted target": "mRpL51 (mitochondrial ribosomal protein L51)", "amplicon": "DRSC02200", "mean viability with MMS": 3.44e6, "viability with MMS, replicate 1": 3.73e6}
{"predicted target": "CG15194 (retired record)", "amplicon": "DRSC19642", "mean viability with MMS": 3.91e6, "viability with MMS, replicate 1": 4.40e6}
{"predicted target": "CG15194 (retired record)", "amplicon": "DRSC19777", "mean viability with MMS": 3.61e6, "viability with MMS, replicate 1": 3.94e6}
{"predicted target": "CG18765", "amplicon": "DRSC15392", "mean viability with MMS": 3.62e6, "viability with MMS, replicate 1": 4.08e6}
{"predicted target": "m (miniature)", "amplicon": "DRSC20181", "mean viability with MMS": 3.43e6, "viability with MMS, replicate 1": 3.86e6}
{"predicted target": "sd (scalloped)", "amplicon": "DRSC20370", "mean viability with MMS": 3.49e6, "viability with MMS, replicate 1": 3.96e6}
{"predicted target": "sd (scalloped)", "amplicon": "DRSC21712", "mean viability with MMS": 3.45e6, "viability with MMS, replicate 1": 3.94e6}
{"predicted target": "CecC (Cecropin C)", "amplicon": "DRSC16606", "mean viability with MMS": 3.57e6, "viability with MMS, replicate 1": 3.99e6}
{"predicted target": "CG5167", "amplicon": "DRSC15728", "mean viability with MMS": 3.60e6, "viability with MMS, replicate 1": 3.99e6}
{"predicted target": "CG8818", "amplicon": "DRSC07275", "mean viability with MMS": 3.62e6, "viability with MMS, replicate 1": 4.14e6}
{"predicted target": "Smurf (SMAD specific E3 ubiquitin protein ligase)", "amplicon": "DRSC07641", "mean viability with MMS": 3.52e6, "viability with MMS, replicate 1": 4.07e6}
{"predicted target": "Jhbp14 (Juvenile hormone binding protein 14)", "amplicon": "DRSC01988", "mean viability with MMS": 3.54e6, "viability with MMS, replicate 1": 4.11e6}
{"predicted target": "CG12877", "amplicon": "DRSC14565", "mean viability with MMS": 3.43e6, "viability with MMS, replicate 1": 3.80e6}
{"predicted target": "Cyt-c1 (Cytochrome c1)", "amplicon": "DRSC10447", "mean viability with MMS": 3.48e6, "viability with MMS, replicate 1": 3.97e6}
{"predicted target": "CG10041", "amplicon": "DRSC14179", "mean viability with MMS": 3.55e6, "viability with MMS, replicate 1": 4.00e6}
{"predicted target": "Orct (Organic cation transporter)", "amplicon": "DRSC16777", "mean viability with MMS": 3.51e6, "viability with MMS, replicate 1": 3.96e6}
{"predicted target": "Prosbeta5R2 (Proteasome beta5 subunit-related 2)", "amplicon": "DRSC01617", "mean viability with MMS": 3.55e6, "viability with MMS, replicate 1": 4.08e6}
{"predicted target": "eve (even skipped)", "amplicon": "DRSC07614", "mean viability with MMS": 3.57e6, "viability with MMS, replicate 1": 4.02e6}
{"predicted target": "nAChRbeta3 (nicotinic Acetylcholine Receptor beta3)", "amplicon": "DRSC00325", "mean viability with MMS": 3.43e6, "viability with MMS, replicate 1": 3.97e6}
{"predicted target": "Ldsdh1 (Lipid droplet subset dehydrogenase 1)", "amplicon": "DRSC18219", "mean viability with MMS": 3.62e6, "viability with MMS, replicate 1": 4.01e6}
{"predicted target": "CG7916", "amplicon": "DRSC01901", "mean viability with MMS": 3.55e6, "viability with MMS, replicate 1": 4.00e6}
{"predicted target": "Sin1 (SAPK-interacting protein 1)", "amplicon": "DRSC05965", "mean viability with MMS": 3.58e6, "viability with MMS, replicate 1": 4.02e6}
{"predicted target": "Polr3B (RNA polymerase III subunit B)", "amplicon": "DRSC07536", "mean viability with MMS": 3.28e6, "viability with MMS, replicate 1": 3.74e6}
